The results in this text go back to publication PMC7648012.

Amino acid sequences for entries named in this document (tags omitted).
UniProt Q9P0M6: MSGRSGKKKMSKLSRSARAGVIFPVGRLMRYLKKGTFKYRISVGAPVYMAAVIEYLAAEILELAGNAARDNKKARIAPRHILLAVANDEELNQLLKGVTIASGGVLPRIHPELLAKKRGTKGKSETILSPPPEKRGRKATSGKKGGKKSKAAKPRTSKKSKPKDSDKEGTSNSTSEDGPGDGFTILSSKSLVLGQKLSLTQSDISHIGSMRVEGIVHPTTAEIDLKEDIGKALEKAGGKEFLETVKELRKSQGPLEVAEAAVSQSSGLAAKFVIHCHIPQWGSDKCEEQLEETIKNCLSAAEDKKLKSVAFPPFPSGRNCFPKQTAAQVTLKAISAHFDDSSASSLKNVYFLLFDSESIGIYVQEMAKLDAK

These are yes or no findings as the source states them, for the method shown. In cells and extracts the contact can be indirect. Some results given as binding are weak or reduced against the parent protein; the word gives no strength. For some assays here: Where a sequence is shown, tags or fusion partners need not be part of it.

Assay [1] addresses T1, 3×FLAG-LSH (wild type) (human) (UniProt Q9NRZ9).
T1 sequence: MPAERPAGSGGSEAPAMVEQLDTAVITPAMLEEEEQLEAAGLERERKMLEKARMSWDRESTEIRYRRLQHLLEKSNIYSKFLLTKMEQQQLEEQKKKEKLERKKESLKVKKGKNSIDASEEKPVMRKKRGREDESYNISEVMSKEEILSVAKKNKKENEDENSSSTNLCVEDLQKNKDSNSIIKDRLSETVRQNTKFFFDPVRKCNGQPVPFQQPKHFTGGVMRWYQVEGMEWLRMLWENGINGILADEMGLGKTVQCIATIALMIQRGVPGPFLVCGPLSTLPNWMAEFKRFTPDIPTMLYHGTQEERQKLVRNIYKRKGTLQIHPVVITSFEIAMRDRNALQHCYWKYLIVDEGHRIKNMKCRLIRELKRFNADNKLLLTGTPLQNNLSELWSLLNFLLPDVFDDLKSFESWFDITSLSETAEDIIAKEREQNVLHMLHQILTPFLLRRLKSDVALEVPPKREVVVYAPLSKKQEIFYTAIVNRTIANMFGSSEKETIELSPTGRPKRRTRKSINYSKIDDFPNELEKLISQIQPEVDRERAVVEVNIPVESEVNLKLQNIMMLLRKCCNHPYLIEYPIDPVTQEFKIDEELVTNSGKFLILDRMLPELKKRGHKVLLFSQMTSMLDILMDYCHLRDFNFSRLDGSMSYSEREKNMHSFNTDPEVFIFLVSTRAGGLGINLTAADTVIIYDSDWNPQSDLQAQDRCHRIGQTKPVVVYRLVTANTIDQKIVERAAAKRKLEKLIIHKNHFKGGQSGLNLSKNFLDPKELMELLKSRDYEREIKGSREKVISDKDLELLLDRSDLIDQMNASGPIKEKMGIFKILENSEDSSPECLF
Briefly: co-IP; Flag-IP from lysate of U2OS cells stably expressing 3×FLAG-LSH (WT or ICF4 mutant); IP lysis buffer 25 mM Tris-HCl pH 7.4, 150 mM NaCl, 1% NP-40, 1 mM EDTA, 5% glycerol; 4 °C overnight; Protein G magnetic beads; western blot. A general note: Immunoblotting shows a protein as a band on a membrane.

A further assay concerns the target macroH2A2-GFP (UniProt Q9P0M6). Briefly: co-IP; GFP-IP from lysate of U2OS cells with a stably integrated macroH2A2-GFP vector (GFP cells as control); IP lysis buffer 25 mM Tris-HCl pH 7.4, 150 mM NaCl, 1% NP-40, 1 mM EDTA, 5% glycerol; 4 °C overnight; Protein G magnetic beads; western blot.

In the case of macroH2A2 (from UniProt Q9P0M6 1-372), the binding entry in assay [1] is reported as “binds”.

B1: LSH (endogenous in U2OS) (protein, UniProt Q9NRZ9 1-838)
chain: T1 sequence
As to B1, the binding result with macroH2A2-GFP is listed as “binds”.
